Data: PMC9763021, “Comprehensive Assessment of Biomolecular Interactions of Morpholine-Based Mixed Ligand Cu(II) and Zn(II) Complexes of 2,2′-Bipyridine as Potential Anticancer and SARS-CoV-2 Agents: A Synergistic Experimental and Structure-Based Virtual Screening” (Bioinorganic Chemistry and Applications, 2022)

Tested on: CT-DNA
Test: DNA binding by cyclic voltammetry
Design: species or system calf thymus
Settings: for D0, (bound) / E° (or) E1/2, (bound) / Ipa/Ipc, (bound) / ΔEP, (bound): DNA-bound; for D0, free / E° (or) E1/2, free / Ipa/Ipc, free / ΔEP, free: no DNA; for ΔEP, free: scan rate 100 mV·s^−1
Protocol: The CV titration for free substances was conducted at 10 μM at 25°C in the presence of Tris-HCl buffer solution (pH: 7.4). While CT-DNA increases (0–10 μM) in each sample solution, a shift in potential, including variations in the peak currents of anodic and cathodic sides, has been monitored.
The CV technique is one of the most important tools for investigating the DNA-complex adduct's binding mechanism. The CV properties of all test samples in the presence and absence of DNA were executed at a scan rate (v) 0.1 Vs^−1 with a potential range of +2 to −2 in a Tris-HCl (5 mM)/NaCl (50 mM) (pH = 7.2) solution. The M^1+/M^2+ redox couple is caused by complexes that reveal a single anodic and cathodic peak. […] (Figure S29 and Table 6).
ΔEP is peak-to-peak separation = (EPa − EPc); E°(or) E1/2 is denoted as formal electrode potential = 1/2 (EPa + EPc); Es°=(Eb° − Ef°)Eb° and Ef° are represented as the formal electrode potential of the M^1+/M^2+ couple in the bound and free forms, respectively. Es° = +19 mV (HL), +34 mV (1a), and +31 mV (2a). Ipa is anodic peak current, Ipc is cathodic peak current. K^1+ is binding constant of reduction process, K^2+ is binding constant of oxidation process, S is represented as binding site size of base pairs (bp) with a molecule of complex, Scan rate is 100 mV·s^−1, binding constant (Kb) values observed from the linear plots of log (1/[DNA]) vs. log (I/I0 − I) for oxidation and reduction, (I0 − IDNA)/IDNA = Cp/Cf versus [DNA] and Ip ^2 versus (Ipo ^2 −Ip ^2 )/[DNA] by methods I, II, and III, respectively.(24) DiffusioncoefficientD0=7.51×10^−5 SlopelogI0 −I/I=log DNA+logKb, where I0 and I are represented as the peak currents of the compound in the absence and presence of DNA.(25) log DNA=logI0 −I/I+log1/Kb log1/DNA=logI/I0−I+logKb, (26) I0 −I/I=KbDNA, (27) I0 −I/I=Cb/Cf, where Cf and Cb are denoted as the free substance concentration and DNA-interacted compound, respectively. (29) was obtained by comparing equations (27) and (28).(28) Cb/Cf=KbDNA, (29) Cb/Cf=Kbfreebasrpairs/S , (30) Cb/Cf=KbDNA/2 S +1.
S is denoted as binding site size (bp), and Kb are estimated from (31) with the help of S = (intercept/4)^1/2 and (Kb = 2S (slope/intercept), respectively. Nernst equations are as follows:(31) Es°=Eb°−Ef°=0.0591 /n logKred/Koxi, (32) Kred/Koxi=Ant. log nEb°−Ef°/0.0591.
E 1/2 or Eb° and Ef° are the formal electrode potentials of the M^1+/M^2+ couple in their bound and free forms, respectively.(33) Ip 2 =1/KbDNAIp0 2 −Ip 2 +Ip0 2 −DNA, where Ipo and Ip are denoted as the peak currents of the complexes (1–3) in the absence and presence of DNA.(34) Ipa=2.69×10^5 n^3/2 α^1/2 AC0 ∗D0 1/2 v^1/2 , (35) Ipa=13314.7D0 1/2 v^1/2 , where Ipa is denoted as the anodic peak current in amperes, n is represented as the number of electrons participating in the redox (M^1+/M^2+) process (n = 1), charge transfer coefficient (or) activation coefficient (α)≈0.5 for quasireversible systems, which also calculated from Bard–Faulkner relation(35a) α=47.7/EPa−EP/2.
C0^∗ ⟶ Bulk concentration of the compound, A is denoted as the cross-sectional area of the working electrode (glassy carbon) in cm^2 (A∼0.07 cm^2), D0 is denoted as diffusion coefficient (cm^2 s^−1) of the M^1+/M^2+ couple in the free and bound forms, respectively, and v is denoted as the potential scan rate at 0.1 Volt·s^−1. While the substances often bind to deoxyribonucleic acid through intercalation, the peak potential shifts in a positive direction. When the compounds bind to deoxyribonucleic acid via minor or major grooves or electrostatic attractions, the peak potential shifts occur in a negative direction. […]

SMILES | D0, (bound) | E° (or) E1/2, (bound) | Ipa/Ipc, (bound) | ΔEP, (bound) | D0, free | E° (or) E1/2, free | Ipa/Ipc, free | ΔEP, free
[Cu+2].[O-]c1ccccc1N=Cc1ccc(N2CCOCC2)cc1.[O-]c1ccccc1N=Cc1ccc(N2CCOCC2)cc1.c1ccc(-c2ccccn2)nc1 [(1a), [Cu(L)2(bpy)]] | 4.3266 × 10^−5 cm^2·s^−1 | 0.7398 V | 0.2031 | 0.2807 V | 4.9799 × 10^−5 cm^2·s^−1 | 0.7054 V | 1.2653 | 0.4352 V
[O-]c1ccccc1N=Cc1ccc(N2CCOCC2)cc1.[O-]c1ccccc1N=Cc1ccc(N2CCOCC2)cc1.[Zn+2].c1ccc(-c2ccccn2)nc1 [(2a), [Zn(L)2(bpy)]] | 3.6257 × 10^−5 cm^2·s^−1 | 0.5719 V | 0.5000 | 0.2965 V | 3.9665 × 10^−5 cm^2·s^−1 | 0.5406 V | 1.8999 | 0.4819 V
Oc1ccccc1N=Cc1ccc(N2CCOCC2)cc1 [(HL), 2-(4-morpholinobenzylideneamino)phenol] | 2.5809 × 10^−5 cm^2·s^−1 | 0.3680 V | 1.3424 | 0.8890 V | 2.8570 × 10^−5 cm^2·s^−1 | 0.3490 V | 1.4295 | 0.7420 V
